From paper PMC3652601, “Structure of a dimeric crenarchaeal Cas6 enzyme with an atypical active site for CRISPR RNA processing” (Biochemical Journal, 2013)
Results are given in words; binding and its absence hold for the method and conditions named.

Target: SsoCas6-L170D/V202D (Sulfolobus solfataricus) (UniProt Q97Y96)
Assay: SEC; calibrated gel filtration, HiLoad 26/600 Superdex 200, 20 mM Tris/HCl pH 7.5, 1 M NaCl; calibrated with Bio-Rad standards; both purified

- binding: no binding
B1: SsoCas6-L170D/V202D (enzyme, UniProt Q97Y96 2-287)
chain: PLIFKIGYNVIPLQDVILPTPSSKVLKYLIQSGKLLPSLNNLITSRDKYKPIFISHLGLNQRRIFQTNGNLKTISRGSKLSSTIAFSTQVNVLPELDEGVFETIYGKFHITIESVEIVEVEKLKEEVEKHMNDNIRVRFISPTLLSSKVLLPPSLSERYKRVNAGYSTDPSVGLIVAYAYNVYCNLIGKKEVEVRAFKFGDISNALSRIIGYDLHPVTIVIGEDSKGNLRKARGVMGWIEFDIPDEKLKRRALRYLLASSYLGIGRSRGIGFGEIKLEFIKREENH
